No constants are given. Whether binding was seen depends on the method and setting. Binding seen in cells or lysates may run through a third protein. These calls come from enrichment with a bait or labelling near it, and not all partners need be listed.
molecular target: Bcl11a-streptag (mouse) (UniProt Q9QYE3); test: affinity purification with mass spectrometry

By UniProt entry, the sequences of proteins in these tests, tags left out.
UniProt Q9QYE3: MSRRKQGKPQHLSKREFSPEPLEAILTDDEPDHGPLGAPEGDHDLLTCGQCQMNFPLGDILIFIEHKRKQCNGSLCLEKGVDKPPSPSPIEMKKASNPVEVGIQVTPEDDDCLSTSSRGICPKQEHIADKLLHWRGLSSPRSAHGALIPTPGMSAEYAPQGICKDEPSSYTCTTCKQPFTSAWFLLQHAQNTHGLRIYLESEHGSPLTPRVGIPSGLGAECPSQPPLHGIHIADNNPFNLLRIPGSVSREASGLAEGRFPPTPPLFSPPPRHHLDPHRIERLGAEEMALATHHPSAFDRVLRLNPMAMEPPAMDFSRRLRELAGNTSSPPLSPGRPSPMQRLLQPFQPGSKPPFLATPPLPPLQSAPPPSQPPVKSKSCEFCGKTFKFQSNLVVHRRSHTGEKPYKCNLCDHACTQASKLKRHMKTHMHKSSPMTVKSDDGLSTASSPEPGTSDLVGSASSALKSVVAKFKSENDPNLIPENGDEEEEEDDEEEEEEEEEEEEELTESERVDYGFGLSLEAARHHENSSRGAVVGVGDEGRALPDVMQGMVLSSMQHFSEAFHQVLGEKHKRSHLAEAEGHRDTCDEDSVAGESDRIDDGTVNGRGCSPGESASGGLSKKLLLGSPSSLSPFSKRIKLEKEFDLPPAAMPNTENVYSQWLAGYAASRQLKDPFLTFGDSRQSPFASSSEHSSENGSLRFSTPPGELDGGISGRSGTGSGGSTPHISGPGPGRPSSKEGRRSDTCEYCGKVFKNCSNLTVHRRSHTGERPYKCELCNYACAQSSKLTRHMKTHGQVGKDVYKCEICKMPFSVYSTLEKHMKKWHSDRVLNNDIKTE
UniProt P40201: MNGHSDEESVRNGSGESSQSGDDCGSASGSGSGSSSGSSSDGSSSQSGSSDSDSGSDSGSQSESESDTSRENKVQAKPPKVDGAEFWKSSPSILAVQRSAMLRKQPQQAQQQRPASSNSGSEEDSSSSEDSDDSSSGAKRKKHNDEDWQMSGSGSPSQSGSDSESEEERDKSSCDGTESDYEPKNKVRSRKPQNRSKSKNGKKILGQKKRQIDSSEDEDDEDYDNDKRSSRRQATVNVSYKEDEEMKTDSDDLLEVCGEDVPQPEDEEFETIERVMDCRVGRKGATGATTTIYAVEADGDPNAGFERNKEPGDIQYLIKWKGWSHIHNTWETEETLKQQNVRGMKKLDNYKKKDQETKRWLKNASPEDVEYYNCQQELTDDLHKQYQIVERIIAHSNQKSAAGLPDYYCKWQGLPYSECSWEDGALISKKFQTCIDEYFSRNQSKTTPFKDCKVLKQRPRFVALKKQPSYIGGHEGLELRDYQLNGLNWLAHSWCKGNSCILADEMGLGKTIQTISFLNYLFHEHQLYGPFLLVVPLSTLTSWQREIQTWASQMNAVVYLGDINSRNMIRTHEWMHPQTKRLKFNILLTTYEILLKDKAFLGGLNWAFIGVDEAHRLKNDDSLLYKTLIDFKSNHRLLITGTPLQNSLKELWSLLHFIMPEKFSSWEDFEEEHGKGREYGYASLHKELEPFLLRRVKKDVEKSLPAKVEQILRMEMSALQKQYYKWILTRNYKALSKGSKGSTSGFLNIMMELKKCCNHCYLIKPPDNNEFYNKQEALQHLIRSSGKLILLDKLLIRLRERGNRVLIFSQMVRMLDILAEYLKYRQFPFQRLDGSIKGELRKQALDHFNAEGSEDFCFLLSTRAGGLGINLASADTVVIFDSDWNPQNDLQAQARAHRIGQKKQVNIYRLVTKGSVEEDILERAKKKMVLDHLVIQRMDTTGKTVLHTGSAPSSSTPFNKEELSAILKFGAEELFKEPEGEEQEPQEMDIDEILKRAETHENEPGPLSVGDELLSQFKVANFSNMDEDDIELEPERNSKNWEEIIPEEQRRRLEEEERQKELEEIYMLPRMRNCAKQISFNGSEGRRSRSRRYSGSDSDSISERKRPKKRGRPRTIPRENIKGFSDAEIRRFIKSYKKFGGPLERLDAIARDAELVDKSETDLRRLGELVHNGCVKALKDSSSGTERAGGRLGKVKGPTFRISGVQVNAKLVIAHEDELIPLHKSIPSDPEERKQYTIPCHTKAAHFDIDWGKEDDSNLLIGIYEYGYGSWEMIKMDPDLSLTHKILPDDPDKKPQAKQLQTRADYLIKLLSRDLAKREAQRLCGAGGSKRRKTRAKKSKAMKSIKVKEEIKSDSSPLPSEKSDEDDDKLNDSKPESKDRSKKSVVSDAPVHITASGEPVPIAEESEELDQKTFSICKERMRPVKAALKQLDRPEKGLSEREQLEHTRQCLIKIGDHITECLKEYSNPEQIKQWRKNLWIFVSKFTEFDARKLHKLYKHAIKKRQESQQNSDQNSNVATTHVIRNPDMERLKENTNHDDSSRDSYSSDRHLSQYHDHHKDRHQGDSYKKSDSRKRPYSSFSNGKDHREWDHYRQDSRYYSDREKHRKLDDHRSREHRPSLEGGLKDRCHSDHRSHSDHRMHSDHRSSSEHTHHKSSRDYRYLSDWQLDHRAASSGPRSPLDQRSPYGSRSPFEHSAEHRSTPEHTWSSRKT
UniProt Q62432: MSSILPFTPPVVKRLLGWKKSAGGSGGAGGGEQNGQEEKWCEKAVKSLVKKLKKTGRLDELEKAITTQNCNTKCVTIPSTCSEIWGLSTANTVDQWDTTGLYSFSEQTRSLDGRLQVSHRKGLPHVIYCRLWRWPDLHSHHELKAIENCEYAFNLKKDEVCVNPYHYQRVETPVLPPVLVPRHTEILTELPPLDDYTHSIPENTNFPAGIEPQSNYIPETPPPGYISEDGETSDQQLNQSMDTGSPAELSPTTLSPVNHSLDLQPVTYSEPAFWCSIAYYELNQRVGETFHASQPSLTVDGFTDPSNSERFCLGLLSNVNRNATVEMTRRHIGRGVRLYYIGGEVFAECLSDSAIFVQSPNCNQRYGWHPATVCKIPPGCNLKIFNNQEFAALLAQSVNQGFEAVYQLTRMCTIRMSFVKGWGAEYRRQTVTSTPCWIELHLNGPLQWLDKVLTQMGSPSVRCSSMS
UniProt Q8BUN5: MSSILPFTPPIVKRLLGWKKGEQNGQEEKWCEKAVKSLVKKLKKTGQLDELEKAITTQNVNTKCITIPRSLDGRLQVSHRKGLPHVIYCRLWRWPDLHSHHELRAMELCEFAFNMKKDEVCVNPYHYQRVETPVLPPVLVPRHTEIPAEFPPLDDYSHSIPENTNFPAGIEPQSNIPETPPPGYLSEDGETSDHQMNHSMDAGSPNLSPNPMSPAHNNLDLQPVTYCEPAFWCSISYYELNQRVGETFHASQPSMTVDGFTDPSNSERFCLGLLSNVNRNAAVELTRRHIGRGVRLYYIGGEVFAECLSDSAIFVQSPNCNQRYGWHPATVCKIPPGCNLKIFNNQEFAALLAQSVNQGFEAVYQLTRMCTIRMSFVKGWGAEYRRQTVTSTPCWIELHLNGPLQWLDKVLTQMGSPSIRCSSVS
UniProt P97454: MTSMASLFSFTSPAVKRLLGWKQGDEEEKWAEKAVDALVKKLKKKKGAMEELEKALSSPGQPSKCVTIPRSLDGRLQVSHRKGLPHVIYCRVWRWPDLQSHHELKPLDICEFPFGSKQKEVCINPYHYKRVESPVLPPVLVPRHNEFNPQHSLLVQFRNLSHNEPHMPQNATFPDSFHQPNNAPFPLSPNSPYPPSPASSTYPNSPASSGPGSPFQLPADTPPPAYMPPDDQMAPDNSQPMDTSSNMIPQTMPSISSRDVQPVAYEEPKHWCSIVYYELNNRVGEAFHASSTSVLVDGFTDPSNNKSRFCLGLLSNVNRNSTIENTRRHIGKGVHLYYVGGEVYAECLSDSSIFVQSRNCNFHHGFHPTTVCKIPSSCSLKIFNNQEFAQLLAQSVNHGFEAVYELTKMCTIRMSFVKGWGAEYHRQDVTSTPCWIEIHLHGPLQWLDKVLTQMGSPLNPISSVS

binding	Substance
binds	Chd1 (from UniProt P40201 1-1711)
binds	Smad2 (from UniProt Q62432 1-467)
binds	Smad3 (from UniProt Q8BUN5 1-425)
binds	Smad5 (from UniProt P97454 1-465)
